# From article PMC7862700
# Protein sequences, listed by entry. Tags and fused reporters are not part of them. Lines headed by an entry give the natural chain unless they say otherwise; changes in a name come on top.
# UniProt Q9Y603: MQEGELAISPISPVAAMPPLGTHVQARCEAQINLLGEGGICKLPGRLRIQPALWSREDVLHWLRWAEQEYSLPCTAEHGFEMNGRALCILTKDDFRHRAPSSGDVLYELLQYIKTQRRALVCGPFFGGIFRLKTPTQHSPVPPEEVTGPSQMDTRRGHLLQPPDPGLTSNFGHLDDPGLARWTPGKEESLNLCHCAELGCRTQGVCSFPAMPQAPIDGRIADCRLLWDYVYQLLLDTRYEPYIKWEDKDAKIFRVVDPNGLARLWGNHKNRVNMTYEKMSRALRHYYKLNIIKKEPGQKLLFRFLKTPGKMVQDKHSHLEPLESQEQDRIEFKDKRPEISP
# Only a part is listed here, and it is no random draw. At the low end of the ranking the order means little.
# Molecular target: ETV7 (UniProt Q9Y603)
# Assay: DAPPL (digital affinity profiling via proximity ligation, sequencing)
# Settings: 10 mM Tris-HCl pH 7.5, 50 mM NaCl, 1 mM DTT, 4% glycerol, room temperature, 30 min; GST-TFs on glutathione beads, 16-mer random dsDNA library, 0.1% …; high values mean tight binding; double strand, one strand shown; scale: fold enrichment (6-mer frequency, TF over GST control)
row,Sequence,binding signal
1,CTGTTG,1.05
2,CATGAT,1.02
3,GCTATG,1.3
4,TGCATA,1.23
5,CTCGAC,1.37
6,CAAACG,0.851
7,ACCGCA,1.12
8,TGCCGG,0.909
9,CTAGCG,0.991
10,ACAATT,1.21
11,TTATCT,1.15
12,ATACGC,1.06
13,CCACCT,0.99
14,CATAGC,0.97
15,TTGCTG,1.37
16,AGTACA,1.21
17,GTATCA,1.04
18,CTACGT,1.35
19,TAAGGG,0.965
20,CACCTC,1.17

row,Sequence,binding signal
1,TTAAAT,1.21
2,CGCGTT,1.02
3,ACTGAA,1.06
4,CACCAC,1.04
5,ATTTCG,1.26
6,ATAGAT,1.17
7,CAACCG,0.986
8,GTAATC,1.17
9,ATCCCA,1.2
10,CTTAAT,1.33
11,TACCCC,1.1
12,AACTGA,1.05
13,CTATGG,1.39
14,ATGGCG,1.01
15,ACTGTT,1.01
16,CTTGTA,1.17
17,TGTACG,1.09
18,ATACGG,1
19,TTTAGT,0.992

# Rewritten as tab-separated lines: entries from further up.
row	Sequence	binding signal
11	TACCCC	1.1
12	AACTGA	1.05
13	CTATGG	1.39
